Binding data for one molecule are collected here from paper PMC10786907.

No constants are given. Whether binding was seen depends on the method and setting. In cells and extracts the contact can be indirect. Here binding means that the protein was enriched with, or labelled near, the bait; the list need not be complete. Tags and fused reporters may be left off the sequences shown.

This assay addresses T1, Flag-FBXO31 (UniProt Q5XUX0).
T1 sequence: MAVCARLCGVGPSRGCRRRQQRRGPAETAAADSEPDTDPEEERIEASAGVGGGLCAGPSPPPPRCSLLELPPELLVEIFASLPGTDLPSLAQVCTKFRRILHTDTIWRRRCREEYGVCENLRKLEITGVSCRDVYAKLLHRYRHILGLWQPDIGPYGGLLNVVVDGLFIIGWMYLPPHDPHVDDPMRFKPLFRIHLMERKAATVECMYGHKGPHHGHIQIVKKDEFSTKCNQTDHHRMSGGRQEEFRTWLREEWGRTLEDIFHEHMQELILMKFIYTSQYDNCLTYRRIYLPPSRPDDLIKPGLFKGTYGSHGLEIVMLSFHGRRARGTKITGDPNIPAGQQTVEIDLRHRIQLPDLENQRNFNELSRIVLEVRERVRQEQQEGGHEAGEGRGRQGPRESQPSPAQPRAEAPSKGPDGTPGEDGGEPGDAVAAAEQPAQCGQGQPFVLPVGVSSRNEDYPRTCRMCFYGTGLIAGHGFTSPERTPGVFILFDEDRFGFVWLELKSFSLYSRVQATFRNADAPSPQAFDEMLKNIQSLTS
Briefly: affinity purification with mass spectrometry; HEK293T cells transfected with Flag-FBXO31 or EV; Flag magnetic beads; band excised from a Coomassie-stained SDS-PAGE gel; LC-MS/MS, Mascot 2.2.

B1: SIRT2 (endogenous, 293T cells) (protein, UniProt Q8IXJ6 1-389)
chain: MAEPDPSHPLETQAGKVQEAQDSDSDSEGGAAGGEADMDFLRNLFSQTLSLGSQKERLLDELTLEGVARYMQSERCRRVICLVGAGISTSAGIPDFRSPSTGLYDNLEKYHLPYPEAIFEISYFKKHPEPFFALAKELYPGQFKPTICHYFMRLLKDKGLLLRCYTQNIDTLERIAGLEQEDLVEAHGTFYTSHCVSASCRHEYPLSWMKEKIFSEVTPKCEDCQSLVKPDIVFFGESLPARFFSCMQSDFLKVDLLLVMGTSLQVQPFASLISKAPLSTPRLLINKEKAGQSDPFLGMIMGLGGGMDFDSKKAYRDVAWLGECDQGCLALAELLGWKKELEDLVRREHASIDAQSGAGVPNPSTSASPKKSPPPAKDEARTTEREKPQ
For B1, the binding result was “binds”.
